Laboratory results from PubChem BioAssay AID448 (National Center for Advancing Translational Sciences (NCATS), 2006).
Values joined by “and” are separate entries in the source; they are usually repeats but may differ in a detail not shown here. Equal entries are not always repeated. About 45 (0.07%) of roughly 65,000 compounds were called active. This list was built around the results that the source calls inconclusive (neither active nor inactive); the mix of calls is not that of the screen. Calls follow the shape of the full dose curve. Potencies beside an inconclusive call are fits to weak or partial responses and may not hold up.

The compounds below were run on Schistosoma mansoni peroxiredoxin 2 (Prx2) (assay: Schistosoma Mansoni Peroxiredoxins (Prx2)). Details: S. mansoni Prx2 activity coupled to TGR/GSH (TGR is thioredoxin glutathione reductase), NADPH fluorescence loss, qHTS.
Source text: NIH Molecular Libraries Screening Centers Network [MLSCN]
NIH Chemical Genomics Center [NCGC]
David Williams [Illinois State University]
Schistosoma mansoni, a causative agent of schistosomiasis, resides in the bloodstream of their host up to 30 years without being eliminated by the host immune attack. One proposed survival mechanism is the production of an antioxidant "firewall" that neutralizes the oxidative assault of the host's immune attack. Schistosoma mansoni peroxiredoxins (Prx) are important parasite antioxidant proteins that play a crucial role in redox balance mechanisms. […] First, the proteins are essential for the parasite survival. […] Third, the protein(s) is amenable for study at the molecular level and can be produced in bacteria in large quantities, in soluble and active form. Inhibition of Prx activity was screened in a coupled-enzyme format with reducing equivalents being transferred from NADPH to […] intermediate via thioredoxin/glutathione reductase (TGR)-catalyzed reaction, then from thioredoxin to hydrogen peroxide via Prx-catalyzed electron transfer. A decrease in the fluorescence intensity of NADPH was used to measure the enzyme activity. Purified S. mansoni TGR and Prx were provided by Professor David L. Williams, Illinois State University.
NCGC Assay Protocol Summary:
100 mM phosphate buffer, pH 7.4, 10 mM EDTA, 0.01% Tween-20.
100 uM NADPH/25 nM TGR/700 uM GSH/50 nM Prx2 mixture in columns 1, 2, 5-48. Titration of control potassium antimonyl tartrate (PAT, from 1 mM, then 1:5) pin-transferred to lower half of column 2. Column 1 and upper half of column 2 are neutral (100% activity).
Three uL of reagents were dispensed to 1536-well Greiner black plates. Compounds and controls (20 nL) were transferred via Kalypsys PinTool. The plates were incubated for 15 min at room temperature, and then a 1 uL aliquot of 400 uM NADPH/700 uM GSH was added, immediately followed by a 1uL aliquot of 2.5 mM H2O2 (to start the reaction). The plate was transferred to ViewLux (Perkin-Elmer) High-throughput CCD imager where kinetic measurements (every 30 sec, for a total of 8 min) of NADPH fluorescence were taken using 365 nm excitation/450 nm emission filter set. During dispense, enzyme-containing reagent bottles were kept submerged into 4 deg C water bath to minimize degradation.
Keywords: NIH Roadmap, MLSCN, MLI, MLSMR, David Williams, Peroxyredoxin, Schistosoma mansoni, prx2, prx, , qHTS, NCGC
Potency is read from the fitted curve at half-maximal effect.

SMILES | Potency
CCOC(=O)CCCCC(=O)c1[nH]c(=O)[nH]c1CSc1nc2ccccc2[nH]1 | inconclusive: 42.7 µM [partial curve]
CCS(=O)(=O)n1nc(-c2ccco2)nc1SC | inconclusive: 77.7 µM [single point]
Cc1cc2ccccc2n1CCNC(=O)c1ccccc1 | inconclusive: 54.5 µM [partial curve]
CC(C)OP(=O)(c1ccc(N(C)C)cc1)C(O)c1c(Cl)cccc1Cl (stereo unspecified) | inconclusive: 127 µM [single point]
C=CCC(=O)OCC(=O)Nc1ccc(Oc2ccccc2)cc1 | inconclusive: 99.9 µM [single point]
O=C1c2ccccc2C(O)(O)[C@@]1(O)[C@]1(O)C(=O)c2ccccc2C1(O)O | inconclusive: 83.4 µM [partial curve]
CC12CC(NC(=O)N1c1cccc(C(=O)NCc3ccc4c(c3)OCO4)c1)c1cc(Cl)ccc1O2 (stereo unspecified) | inconclusive: 44.7 µM [partial curve]
CCc1ccc(NC(=O)c2cc(-c3ccco3)on2)cc1 | inconclusive: 83.7 µM [single point]
CN1CCN(c2nc(Nc3cccc(C(F)(F)F)c3)nc(N3CCOCC3)n2)CC1 | inconclusive: 55.4 µM [single point]
Cc1cc(S(=O)(=O)NC2CCCCC2)c(C)s1 | inconclusive: 96.1 µM [single point]
O=C(CCN1C(=O)C2C3C=CC(C3)C2C1=O)NCC1CCCO1 (stereo unspecified) | inactive: > 57 µM
CCCCOc1ccc(C(=O)O)cc1 | inconclusive: 56.2 µM [single point]
C/C(=N\NC(N)=S)c1ccc[nH]1 | inactive: > 57 µM
COC(=O)C1=C(C)NC(C)=C([N+](=O)[O-])[C@@H]1c1ccccc1C(F)(F)F | inconclusive: 159 µM [partial curve]
c1ccc(N2CC3(CCNCC3)C2)nc1 | inconclusive: 113 µM [single point]
CCOC(=O)c1sc(=S)n(Cc2ccccc2)c1N | inconclusive: 39.4 µM [partial curve]
C=CCn1c(N)c(C(=O)N2CCOCC2)sc1=S | inconclusive: 120 µM [single point]
CCCN(CCc1ccccc1)[C@H]1CCc2c(O)cccc2C1 | inactive: > 57 µM
Cc1ccc(CNC(=O)CCNS(=O)(=O)c2ccc3c(c2)c(=O)n(C)c(=O)n3C)cc1 | inconclusive: 254 µM [partial curve]
[O-][N+]1=c2ccc(Nc3ccccc3)cc2=NC12CCCCC2 | inconclusive: 58.2 µM [single point]
CSCSC1=C(C#N)C(c2ccccc2Cl)C(C(C)=O)=C(C)N1 (stereo unspecified) | inconclusive: 62 µM [single point]
CCCCn1c(=S)[nH]c2c(oc3ccc(Cl)cc32)c1=O | inactive: > 57 µM
Cc1ccccc1Cn1nc(C)c(NC(=O)c2noc3c2CCc2ccccc2-3)c1C | inconclusive: 58.1 µM [single point]

SMILES | Potency
O=C(On1c(-c2ccccc2)nc2ccccc2c1=O)c1ccco1 | inconclusive: 56.4 µM [single point]
Cc1ncc([N+](=O)[O-])n1C[C@H](O)CCl | inactive: > 57 µM
OC[C@H]1NC[C@H](O)[C@@H](O)[C@H]1O | inactive: > 57 µM
COc1ccccc1NC(=O)CSc1nnc(Cn2c(=O)sc3ccccc32)n1C | inactive: > 57 µM
CC[N+](CC)(CC)CCOc1cccc(OCC[N+](CC)(CC)CC)c1OCC[N+](CC)(CC)CC | inactive: > 57 µM and inconclusive: 77.4 µM [single point]
CCc1ccccc1NC(=O)c1ccoc1C | inconclusive: 40.7 µM [partial curve]
Cc1cc(C(=O)CSC(=S)SC(C)(C)C)ccc1Cl | inactive: > 57 µM
CSc1ccc(-c2c(C#N)c(N)nc3c2CCCC3)cc1 | inconclusive: 61.2 µM [single point]
COc1ccc(CCn2c(-c3ccco3)nc3ccccc3c2=O)cc1OC | inconclusive: 55.7 µM [single point]
CC1CCCC(C)N1S(=O)(=O)c1ccc(NC(=O)CNCC2CCCO2)cc1 (stereo unspecified) | inconclusive: 48.4 µM [single point]
O=C(c1ccco1)N(Cc1cccs1)C1CCS(=O)(=O)C1 (stereo unspecified) | inconclusive: 74.8 µM [single point]
O=C1OCCC1Sc1nnc(-c2ccco2)o1 (stereo unspecified) | active: 6.54 µM
CN[C@@H](CC(C)C)C(=O)N[C@@H]1C(=O)N[C@H](CC(N)=O)C(=O)N[C@H]2C(=O)N[C@H]3C(=O)N[C@H](C(=O)N[C@H](C(=O)O)c4cc(O)cc(O)c4-c4cc3ccc4O)[C@H](O)c3ccc(c(Cl)c3)Oc3cc2cc(c3O[C@@H]2O[C@@H](CO)[C@@H](O)[C@@H](O)[C@H]2O[C@H]2C[C@](C)(N)[C@H](O)[C@H](C)O2)Oc2ccc(cc2Cl)[C@@H]1O | inactive: > 57 µM
O=S(=O)(Nc1nccs1)c1ccc([As](=O)(O)O)cc1 | inconclusive: 29.4 µM [partial curve]
COc1ccccc1N1CC(C(=O)OCC(=O)c2ccc(F)cc2)CC1=O (stereo unspecified) | inconclusive: 86 µM [single point]
COc1ccc(C(=O)NC(=O)Nc2cc(C)ccn2)cc1 | inconclusive: 57.6 µM [single point]
Oc1ccc(CNc2ccccc2F)c2cccnc12 | inconclusive: 110 µM [single point]
C[C@@]1(O)CCOC(=O)C1 | inactive: > 57 µM
CCOC(=O)Nc1ccc(NCc2ccc(F)cc2)nc1N | inconclusive: 102 µM [partial curve]
COc1ccc(-n2nnnc2S(=O)(=O)CC(=O)N2CCCCC2)cc1 | inconclusive: 122 µM [partial curve]
Clc1ccc(-n2nnnc2Sc2ncnc3sccc23)cc1 | inconclusive: 5.26 µM [partial curve]
Cc1ccc(S(=O)(=O)Nc2ccc3nc(-c4cccn4C)[nH]c3c2)cc1 | inconclusive: 79.3 µM [single point]
OC[C@@H]1NC[C@@H](O)[C@H]1O | inactive: > 57 µM

An excerpt from above in order of formula weight, rising:
SMILES | Potency
OC[C@@H]1NC[C@@H](O)[C@H]1O | inactive: > 57 µM
OC[C@H]1NC[C@H](O)[C@@H](O)[C@H]1O | inactive: > 57 µM
CCc1ccccc1NC(=O)c1ccoc1C | inconclusive: 40.7 µM [partial curve]
CSc1ccc(-c2c(C#N)c(N)nc3c2CCCC3)cc1 | inconclusive: 61.2 µM [single point]
CCOC(=O)Nc1ccc(NCc2ccc(F)cc2)nc1N | inconclusive: 102 µM [partial curve]
O=C(c1ccco1)N(Cc1cccs1)C1CCS(=O)(=O)C1 (stereo unspecified) | inconclusive: 74.8 µM [single point]
Cc1cc(C(=O)CSC(=S)SC(C)(C)C)ccc1Cl | inactive: > 57 µM
COc1ccc(-n2nnnc2S(=O)(=O)CC(=O)N2CCCCC2)cc1 | inconclusive: 122 µM [partial curve]
Cc1ccc(S(=O)(=O)Nc2ccc3nc(-c4cccn4C)[nH]c3c2)cc1 | inconclusive: 79.3 µM [single point]
COc1ccccc1N1CC(C(=O)OCC(=O)c2ccc(F)cc2)CC1=O (stereo unspecified) | inconclusive: 86 µM [single point]
COc1ccc(CCn2c(-c3ccco3)nc3ccccc3c2=O)cc1OC | inconclusive: 55.7 µM [single point]
CC[N+](CC)(CC)CCOc1cccc(OCC[N+](CC)(CC)CC)c1OCC[N+](CC)(CC)CC | inactive: > 57 µM and inconclusive: 77.4 µM [single point]
CN[C@@H](CC(C)C)C(=O)N[C@@H]1C(=O)N[C@H](CC(N)=O)C(=O)N[C@H]2C(=O)N[C@H]3C(=O)N[C@H](C(=O)N[C@H](C(=O)O)c4cc(O)cc(O)c4-c4cc3ccc4O)[C@H](O)c3ccc(c(Cl)c3)Oc3cc2cc(c3O[C@@H]2O[C@@H](CO)[C@@H](O)[C@@H](O)[C@H]2O[C@H]2C[C@](C)(N)[C@H](O)[C@H](C)O2)Oc2ccc(cc2Cl)[C@@H]1O | inactive: > 57 µM
